Reference: patent US20180117150A1, “Combination Therapies for CD38-Positive Hematological Malignances with ANTI-CD38 Antibodies and Cyclophosphamide” (Janssen Biotech, Inc., priority 2016, published 2018)
At least one compound was matched to its structure with a doubt left.

System: MM1S cells
Test: Daratumumab-mediated MM1S tumor cell clearance in co-culture with conditioned THP-1 macrophages (ADCP assay)
Type: cell-based
Conditions: THP-1 conditioned 48 hours with media of treated MM1S; 1 μg/ml daratumumab, E:T 2:1, 18 hours; FIG. 4
Method: FIG. 4 illustrates the level of MM1S tumor cell clearance in co-culture of MM1S cells and THP-1 macrophages. Prior to initiation of co-cultures, THP-1 cells were cultured 48 hours in conditioned media generated from untreated MM1S tumor cells or MM1S cells treated with lenalidomide (FIG. 4A), bortezomib (FIG. 4B) or cyclophosphamide (CTX) alone or in combination with bortezomib or lenalidomide (FIG. 4C). MM1S cells were stained with calcein and incubated with daratumumab or IgG1 isotype control ([…]) and co-culture with THP-1 cells at a 2:1 effector to target ratio for 18 hours. Cell frequency was determined using the Accuri C6 (Right). The % specific cell clearance was calculated by the following formula:
100−100*(The frequency of calcein stained MM1S cells in the presence of 1 μg/ml daratumumab/
The frequency of calcein stained MM1S cells in the presence of Isotype control).
Co-cultures of MM1S and THP-1 cells were incubated in the presence of cytochalasin to assess if daratumumab mediated MM1S killing by ADCP. […] FIG. 5 illustrates the level of daratumumab-mediated tumor cell clearance in co-cultures of MM1S and THP-1 cells. […]

Compound: C[C@@H]1C[C@H]2[C@@H]3CCC4=CC(=O)C=C[C@]4(C)[C@@]3(F)[C@@H](O)C[C@]2(C)[C@@]1(O)C(=O)CO [dexamethasone]
- daratumumab-mediated tumor cell killing by macrophages (% specific MM1S cell clearance): augmented
